At least one compound was matched to its structure with a doubt left.
Legend:
[1] = tested on: human liver cancer cell line (HepG2); assay: Phosphorylation of mTOR pathway proteins in HepG2 (western blot); type: cell-based
Experimental: After culturing the human liver cancer cell line (HepG2) in LAM, ETV, ADV, and TDF, phosphorylation of Akt in the mTOR pathway and S6K and 4-EBP downstream thereof was analyzed by western blot. Then, the phosphorylation of the above-mentioned proteins was suppressed in ADV and TDF in a dose-dependent manner, but there was no change in LAM and ETV.

PBMC or CD14+ monocyte = assay: Cytokine regulation by mTOR inhibitor (LPS-mediated IL-10 and IL-12p70 production); type: cell-based, human; conditions: various concentrations; FIG. 6

Row | Structure (SMILES) | phosphorylation of Akt and S6K and 4-EBP downstream thereof [1] | LPS-mediated IL-10 production (PBMC or CD14+ monocyte) | LPS-mediated IL-12p70 production (PBMC or CD14+ monocyte)
1 | Nc1ccn([C@@H]2CS[C@H](CO)O2)c(=O)n1 [LAM, lamivudine] | no change | – | –
2 | COC[C@H]1OC(=O)c2coc3c2[C@@]1(C)C1=C(C3=O)[C@@H]2CCC(=O)[C@@]2(C)C[C@H]1OC(C)=O [wortmannin] | – | dose-dependently inhibited | induced
